According to article PMC8981990:
No constants are given. Whether binding was seen depends on the method and setting. Binding seen in cells or lysates may run through a third protein. Some results given as binding are weak or reduced against the parent protein; the word gives no strength.

The chains behind the UniProt entries cited, without tags or fusion partners.
UniProt P14618: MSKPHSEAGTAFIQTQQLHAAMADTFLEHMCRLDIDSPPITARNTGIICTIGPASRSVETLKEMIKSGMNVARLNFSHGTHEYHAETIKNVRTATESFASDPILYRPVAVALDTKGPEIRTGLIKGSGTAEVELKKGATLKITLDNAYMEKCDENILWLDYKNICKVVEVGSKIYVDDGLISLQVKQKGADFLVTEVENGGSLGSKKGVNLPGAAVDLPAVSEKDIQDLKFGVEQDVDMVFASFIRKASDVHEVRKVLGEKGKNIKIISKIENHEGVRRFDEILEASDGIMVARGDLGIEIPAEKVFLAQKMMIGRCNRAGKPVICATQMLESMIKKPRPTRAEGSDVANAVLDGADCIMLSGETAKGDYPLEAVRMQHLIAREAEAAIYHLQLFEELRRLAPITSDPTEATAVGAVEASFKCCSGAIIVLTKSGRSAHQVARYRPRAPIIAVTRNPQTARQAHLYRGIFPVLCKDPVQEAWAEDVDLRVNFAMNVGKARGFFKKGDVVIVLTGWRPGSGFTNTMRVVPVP
UniProt P14635: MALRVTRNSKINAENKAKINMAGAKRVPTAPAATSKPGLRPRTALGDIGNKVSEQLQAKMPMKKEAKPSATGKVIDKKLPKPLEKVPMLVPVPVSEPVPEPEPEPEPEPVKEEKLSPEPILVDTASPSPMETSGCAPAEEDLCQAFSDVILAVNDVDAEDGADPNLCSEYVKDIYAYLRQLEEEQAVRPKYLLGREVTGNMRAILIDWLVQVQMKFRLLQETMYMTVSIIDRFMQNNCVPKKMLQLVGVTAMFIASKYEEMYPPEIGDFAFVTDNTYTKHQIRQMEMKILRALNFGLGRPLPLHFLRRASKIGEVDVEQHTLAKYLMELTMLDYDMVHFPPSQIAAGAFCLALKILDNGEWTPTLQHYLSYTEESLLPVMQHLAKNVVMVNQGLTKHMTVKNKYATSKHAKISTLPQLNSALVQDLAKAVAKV

Legend:
[1] = biological target: PKM2 (pyruvate kinase M2 isoform) (human (endogenous in U87)) (UniProt P14618); assay: co-IP; control (scrambled shRNA) U87 cells, whole-cell lysates 2-15 h after release from serum starvation; IP of Cdk1, cyclin B or PKM2 with protein A/G-agarose, washes with RIPA containing 0.5 M NaCl and 2% SDS, Western blot; with DASA-58 (40 uM, last 3 h, harvest at 10 h) less co-precipitate
[2] = biological target: cyclin B1 (human (endogenous in U87)) (UniProt P14635); assay: condition: only cells undergoing mitosis (mitotic shake-off); co-IP; control U87 cells undergoing mitosis, isolated by mitotic shake-off (M lanes); IP of Cdk1, cyclin B or PKM2, Western blot
[3] = biological target: cyclin B1 (human (endogenous in U87)) (UniProt P14635); assay: co-IP; patient-derived xenograft cell lines GBM6 and GBM39, lysates after release from serum starvation; IP of Cdk1 or cyclin B, Western blot
[4] = biological target: cyclin B1 (human (endogenous in U87)) (UniProt P14635); assay: condition: only early after release from serum starvation, before Cdk1 and cyclin B associate; co-IP; control U87 cells at early times after release from serum starvation, before Cdk1 and cyclin B associate; IP of Cdk1, cyclin B or PKM2, Western blot
[5] = biological target: cyclin B1 (human (endogenous in U87)) (UniProt P14635); assay: co-IP; NHA-E6-E7-hTERT-Ras cells, lysates 2-15 h after release; IP of Cdk1 or cyclin B, Western blot
[6] = biological target: cyclin B1 (human (endogenous in U87)) (UniProt P14635); assay: co-IP; control (scrambled shRNA) U87 cells, whole-cell lysates 2-15 h after release from serum starvation; IP of Cdk1, cyclin B or PKM2 with protein A/G-agarose, washes with RIPA containing 0.5 M NaCl and 2% SDS, Western blot; with DASA-58 (40 uM, last 3 h, harvest at 10 h) less co-precipitate

binding [1] | binding [2] | binding [3] | binding [4] | binding [5] | binding [6] | Substance
binds | – | – | – | – | – | cyclin B1 (from UniProt P14635 1-433)
– | no binding | binds | no binding | binds | binds | PKM2 (pyruvate kinase M2 isoform) (from UniProt P14618 1-531)
